Experimental findings from PubChem BioAssay AID256 (DTP/NCI, 2004) are described below.

Structures are written as SMILES. The list does not hold the whole screen: it gathers tests that were run many times, whatever their T/C, doses with no T/C, and many T/C values between a quarter and a half above the control. Other doses and runs of a compound stand elsewhere. T/C: endpoint of the treated group in % of that of the vehicle group. Some entries give survivors of the animals treated and no T/C: the source holds a T/C of zero for them, seemingly a mark for toxic or unscored doses. Some survivor counts are full or nearly so, which does not show that the dose was tolerated: survival well below the control is almost never listed, so the zero probably covers shortened survival too. Survivors were counted at the toxicity check, usually on the fifth day, unless a day is given; later deaths do not show. Schedule codes are those of the source, taken here to give the interval after Q, in days (D) or hours (H), and the number of doses after X. Some entries hold several experiments; the values are given in rising order. Where survival is the endpoint, the PubChem record calls one and a half times the control and up active, and a quarter to a half above the control has no call in these data; cut-offs in other NCI protocols can differ. Some T/C values carry the count of animals alive at the toxicity check (mostly the fifth day); where none is given, no animal had died by that day.

This experiment has as its system CD2F1 mice, L1210 leukemia ip, survival T/C. Briefly: NCI In Vivo Anticancer Drug Screen. Data for tumor model L1210 Leukemia (intraperitoneal) in CD2F1 (CDF1) mice. To be noted: higher T/C = longer survival. The essentials:
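Read-out first: treated-group measurement over vehicle-control measurement, expressed as a ratio. Animals bore a transplanted tumor line and were dosed with compound or vehicle.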

The mark [1] stands for this setting: T/C endpoint: mean survival time, dose: 25.0 mg/kg/injection, schedule: Q04DX002 (ip), vehicle: saline with Tween-80.
Setting [2] is: T/C endpoint: mean survival time, dose: 50.0 mg/kg/injection, schedule: Q04DX002 (ip), vehicle: saline with Tween-80.
[3] abbreviates: T/C endpoint: mean survival time, dose: 100.0 mg/kg/injection, schedule: Q04DX002 (ip), vehicle: saline with Tween-80.
Where [4] appears, read: T/C endpoint: mean survival time, dose: 400.0 mg/kg/injection, schedule: Q04DX003 (ip), vehicle: saline with Tween-80.

Take `C[CH2][Sn]([CH2]C)([CH2]C)[S]Cc1ccccc1`: the survivor count was 5 of 6 (T/C endpoint: mean survival time, dose: 6.25 mg/kg/injection, schedule: Q01DX009 (ip), vehicle: saline with Tween-80); 2 of 6 (T/C endpoint: mean survival time, dose: 12.5 mg/kg/injection, schedule: Q01DX009 (ip), vehicle: saline with Tween-80); 0 of 6 (T/C endpoint: mean survival time, dose: 25.0 mg/kg/injection, schedule: Q01DX009 (ip), vehicle: saline with Tween-80); 0 of 3 under setting [1]; 0 of 3 under setting [2]; 0 of 3 under setting [3].

Take `O=C(O)CCCc1ccc(N(CCCl)CCCl)cc1`: the T/C was 128 % of control (T/C endpoint: mean survival time, dose: 8.0 mg/kg/injection, schedule: Q03HX024 (ip), vehicle: other); 127 % of control (T/C endpoint: mean survival time, dose: 12.5 mg/kg/injection, schedule: Q01DX009 (ip), vehicle: saline); 142 % of control (T/C endpoint: mean survival time, dose: 15.0 mg/kg/injection, schedule: Q01DX007 (ip), vehicle: saline with Tween-80); 136 % of control (T/C endpoint: mean survival time, dose: 15.0 mg/kg/injection, schedule: Q01DX009 (ip), vehicle: saline with Tween-80); 125 % of control (T/C endpoint: mean survival time, dose: 16.0 mg/kg/injection, schedule: Q01DX009 (ip), vehicle: Klucel (hydroxypropylcellulose) (HPC)); 148 % of control (T/C endpoint: mean survival time, dose: 16.0 mg/kg/injection, schedule: Q01DX009 (ip), vehicle: other). Also, the T/C is, setting by setting: (T/C endpoint: mean survival time, dose: 16.0 mg/kg/injection, schedule: Q03HX008 (ip), vehicle: other) 132 % of control [9 of 10 alive]; (T/C endpoint: mean survival time, dose: 20.0 mg/kg/injection, schedule: Q01DX009 (ip), vehicle: saline with Tween-80) 128 % of control; (T/C endpoint: mean survival time, dose: 30.0 mg/kg/injection, schedule: Q01DX007 (ip), vehicle: saline) 135 % of control; (T/C endpoint: mean survival time, dose: 30.0 mg/kg/injection, schedule: Q03DX003 (ip), vehicle: saline) 138 % of control; (T/C endpoint: mean survival time, dose: 32.0 mg/kg/injection, schedule: Q04DX003 (ip), vehicle: saline with Tween-80) 134 % of control [5 of 6 alive]; (T/C endpoint: median survival time, dose: 12.5 mg/kg/injection, schedule: Q01DX009 (ip), vehicle: saline) 128 % of control. Further, the survivor count runs as follows: (T/C endpoint: mean survival time, dose: 16.0 mg/kg/injection, schedule: Q03HX024 (ip), vehicle: other) 7 of 10; (T/C endpoint: mean survival time, dose: 30.0 mg/kg/injection, schedule: Q01DX009 (ip), vehicle: saline with Tween-80) 3 of 6; (T/C endpoint: mean survival time, dose: 32.0 mg/kg/injection, schedule: Q01DX009 (ip), vehicle: other) 10 of 10; (T/C endpoint: mean survival time, dose: 32.0 mg/kg/injection, schedule: Q01DX009 (ip), vehicle: saline with Tween-80) 1 of 6; (T/C endpoint: mean survival time, dose: 32.0 mg/kg/injection, schedule: Q01DX009 (sc), vehicle: other) 10 of 10; (T/C endpoint: mean survival time, dose: 50.0 mg/kg/injection, schedule: Q01DX009 (ip), vehicle: Klucel (hydroxypropylcellulose) (HPC)) 0 of 6. The survivor count reads like this: (T/C endpoint: mean survival time, dose: 60.0 mg/kg/injection, schedule: Q01DX007 (ip), vehicle: saline with Tween-80) 0 of 6; (T/C endpoint: mean survival time, dose: 60.0 mg/kg/injection, schedule: Q01DX009 (ip), vehicle: saline with Tween-80) 0 of 6; (T/C endpoint: mean survival time, dose: 64.0 mg/kg/injection, schedule: Q01DX001 (ip), vehicle: saline with Tween-80) 1 of 6 and 3 of 6; (T/C endpoint: mean survival time, dose: 64.0 mg/kg/injection, schedule: Q01DX009 (ip), vehicle: other) 0 of 10; (T/C endpoint: mean survival time, dose: 64.0 mg/kg/injection, schedule: Q01DX009 (oral), vehicle: other) 4 of 10; (T/C endpoint: mean survival time, dose: 64.0 mg/kg/injection, schedule: Q01DX009 (sc), vehicle: other) 6 of 10. Moreover, the survivor count reads like this: (T/C endpoint: mean survival time, dose: 64.0 mg/kg/injection, schedule: Q04DX003 (ip), vehicle: other) 10 of 10; (T/C endpoint: mean survival time, dose: 64.0 mg/kg/injection, schedule: Q04DX003 (ip), vehicle: saline with Tween-80) 5 of 6; (T/C endpoint: mean survival time, dose: 100.0 mg/kg/injection, schedule: Q01DX009 (ip), vehicle: Klucel (hydroxypropylcellulose) (HPC)) 0 of 6; (T/C endpoint: mean survival time, dose: 128.0 mg/kg/injection, schedule: Q01DX001 (ip), vehicle: other) 0 of 10; (T/C endpoint: mean survival time, dose: 128.0 mg/kg/injection, schedule: Q01DX001 (ip), vehicle: saline with Tween-80) 0 of 6; (T/C endpoint: mean survival time, dose: 128.0 mg/kg/injection, schedule: Q01DX001 (oral), vehicle: other) 3 of 10. In addition, the survivor count is 3 of 10 (T/C endpoint: mean survival time, dose: 128.0 mg/kg/injection, schedule: Q01DX001 (sc), vehicle: other); 1 of 10 (T/C endpoint: mean survival time, dose: 128.0 mg/kg/injection, schedule: Q04DX003 (ip), vehicle: other); 5 of 10 (T/C endpoint: mean survival time, dose: 128.0 mg/kg/injection, schedule: Q04DX003 (oral), vehicle: other); 0 of 10 (T/C endpoint: mean survival time, dose: 128.0 mg/kg/injection, schedule: Q08DX002 (ip), vehicle: other); 0 of 6 (T/C endpoint: mean survival time, dose: 200.0 mg/kg/injection, schedule: Q01DX009 (ip), vehicle: Klucel (hydroxypropylcellulose) (HPC)); 0 of 6 (T/C endpoint: mean survival time, dose: 256.0 mg/kg/injection, schedule: Q01DX001 (ip), vehicle: saline with Tween-80). Also, the survivor count (T/C endpoint: median survival time, dose: 25.0 mg/kg/injection, schedule: Q01DX009 (ip), vehicle: saline) is 0 of 6 and 1 of 6.

On to `O=NN(CCCl)C(=O)NC1CSCSC1`, for which the T/C (T/C endpoint: mean survival time, dose: 4.0 mg/kg/injection, schedule: Q01DX001 (ip), vehicle: saline with Tween-80) was 135 % of control.

Regarding `O=CNc1ccccc1.[Hg]`, the survivor count is listed as 1 of 3 under setting [1], 0 of 3 under setting [2] and 0 of 3 under setting [3].

As for `C=CS(=O)(=O)c1ccc([N+](=O)[O-])cc1`, the survivor count runs as follows: (T/C endpoint: mean survival time, dose: 12.5 mg/kg/injection, schedule: Q04DX002 (ip), vehicle: saline with Tween-80) 3 of 3; under setting [2], 3 of 3.

For `C1OCN2CSCC12` (stereo not given), the survivor count (T/C endpoint: mean survival time, dose: 400.0 mg/kg/injection, schedule: Q01DX009 (ip), vehicle: saline with Tween-80) is 3 of 6.

Turning to `CC(NCCN(C)C)C1CCC2C3CCC4CC(O)CCC4(C)C3CCC12C` (stereo not given), the survivor count reads like this: (T/C endpoint: mean survival time, dose: 100.0 mg/kg/injection, schedule: Q04DX003 (ip), vehicle: saline with Tween-80) 4 of 6; (T/C endpoint: mean survival time, dose: 200.0 mg/kg/injection, schedule: Q04DX003 (ip), vehicle: saline with Tween-80) 0 of 6; under setting [4], 0 of 6.

Regarding `Nc1cc(OCc2ccccc2)c(N)c(N)n1`, the survivor count is on record as 1 of 3 (T/C endpoint: mean survival time, dose: 25.0 mg/kg/injection, schedule: Q01DX005 (ip), vehicle: water); 0 of 3 (T/C endpoint: mean survival time, dose: 50.0 mg/kg/injection, schedule: Q01DX005 (ip), vehicle: water); 0 of 3 (T/C endpoint: mean survival time, dose: 100.0 mg/kg/injection, schedule: Q01DX005 (ip), vehicle: water); 0 of 3 (T/C endpoint: mean survival time, dose: 200.0 mg/kg/injection, schedule: Q01DX005 (ip), vehicle: water); 0 of 3 (T/C endpoint: mean survival time, dose: 400.0 mg/kg/injection, schedule: Q01DX005 (ip), vehicle: water).

`COC(=O)c1ccc(O)c([N+](=O)[O-])c1`: under setting [4], the survivor count is recorded as 5 of 6.

With `Nc1ccn(C2CC3[O][Sn]([c]4ccccc4)([c]4ccccc4)[O]CC3O2)c(=O)n1` (stereo not given), the survivor count (T/C endpoint: mean survival time, dose: 100.0 mg/kg/injection, schedule: Q01DX005 (ip), vehicle: distilled water + Tween-80) is reported as 0 of 6.
